The values that follow come from paper PMC4340420.

Sequences of proteins named here, by UniProt entry; tags and fusion partners are left off.
UniProt Q9NYV4: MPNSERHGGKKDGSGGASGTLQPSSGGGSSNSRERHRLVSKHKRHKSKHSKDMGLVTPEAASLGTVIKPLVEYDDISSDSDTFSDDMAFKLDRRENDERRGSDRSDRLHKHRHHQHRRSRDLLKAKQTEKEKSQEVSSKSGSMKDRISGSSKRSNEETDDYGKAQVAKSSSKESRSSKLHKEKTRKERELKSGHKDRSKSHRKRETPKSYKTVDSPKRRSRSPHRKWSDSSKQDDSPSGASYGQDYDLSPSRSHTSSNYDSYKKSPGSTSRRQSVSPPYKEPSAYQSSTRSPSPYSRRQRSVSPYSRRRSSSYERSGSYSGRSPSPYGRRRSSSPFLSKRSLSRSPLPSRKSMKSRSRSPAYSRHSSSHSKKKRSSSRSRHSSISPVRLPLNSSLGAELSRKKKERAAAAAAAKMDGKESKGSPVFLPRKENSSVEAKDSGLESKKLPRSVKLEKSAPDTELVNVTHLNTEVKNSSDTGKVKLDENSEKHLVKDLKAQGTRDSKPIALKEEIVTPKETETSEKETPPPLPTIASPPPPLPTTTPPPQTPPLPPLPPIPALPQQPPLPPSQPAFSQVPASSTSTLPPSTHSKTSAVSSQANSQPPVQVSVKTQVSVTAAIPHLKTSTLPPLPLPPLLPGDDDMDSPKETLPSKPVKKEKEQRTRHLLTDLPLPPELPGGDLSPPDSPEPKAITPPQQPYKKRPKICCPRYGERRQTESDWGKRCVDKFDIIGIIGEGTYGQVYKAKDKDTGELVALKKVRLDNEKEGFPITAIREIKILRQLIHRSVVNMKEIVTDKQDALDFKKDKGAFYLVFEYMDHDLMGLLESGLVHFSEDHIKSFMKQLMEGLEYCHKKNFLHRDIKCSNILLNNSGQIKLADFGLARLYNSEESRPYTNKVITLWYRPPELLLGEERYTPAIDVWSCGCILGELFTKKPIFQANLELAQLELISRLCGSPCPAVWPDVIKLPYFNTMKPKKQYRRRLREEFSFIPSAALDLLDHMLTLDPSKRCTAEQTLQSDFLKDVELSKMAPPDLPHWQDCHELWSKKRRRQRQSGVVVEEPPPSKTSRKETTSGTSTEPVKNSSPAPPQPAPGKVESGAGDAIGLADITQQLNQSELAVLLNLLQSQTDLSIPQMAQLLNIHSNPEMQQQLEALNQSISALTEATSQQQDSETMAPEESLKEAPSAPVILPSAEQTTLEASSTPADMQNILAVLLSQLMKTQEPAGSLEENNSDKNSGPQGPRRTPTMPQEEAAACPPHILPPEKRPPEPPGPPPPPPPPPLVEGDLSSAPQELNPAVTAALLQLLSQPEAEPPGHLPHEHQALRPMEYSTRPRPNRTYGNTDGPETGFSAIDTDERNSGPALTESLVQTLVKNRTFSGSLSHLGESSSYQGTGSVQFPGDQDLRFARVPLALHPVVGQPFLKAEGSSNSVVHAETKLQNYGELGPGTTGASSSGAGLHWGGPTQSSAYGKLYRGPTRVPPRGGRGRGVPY
UniProt Q4VXU2: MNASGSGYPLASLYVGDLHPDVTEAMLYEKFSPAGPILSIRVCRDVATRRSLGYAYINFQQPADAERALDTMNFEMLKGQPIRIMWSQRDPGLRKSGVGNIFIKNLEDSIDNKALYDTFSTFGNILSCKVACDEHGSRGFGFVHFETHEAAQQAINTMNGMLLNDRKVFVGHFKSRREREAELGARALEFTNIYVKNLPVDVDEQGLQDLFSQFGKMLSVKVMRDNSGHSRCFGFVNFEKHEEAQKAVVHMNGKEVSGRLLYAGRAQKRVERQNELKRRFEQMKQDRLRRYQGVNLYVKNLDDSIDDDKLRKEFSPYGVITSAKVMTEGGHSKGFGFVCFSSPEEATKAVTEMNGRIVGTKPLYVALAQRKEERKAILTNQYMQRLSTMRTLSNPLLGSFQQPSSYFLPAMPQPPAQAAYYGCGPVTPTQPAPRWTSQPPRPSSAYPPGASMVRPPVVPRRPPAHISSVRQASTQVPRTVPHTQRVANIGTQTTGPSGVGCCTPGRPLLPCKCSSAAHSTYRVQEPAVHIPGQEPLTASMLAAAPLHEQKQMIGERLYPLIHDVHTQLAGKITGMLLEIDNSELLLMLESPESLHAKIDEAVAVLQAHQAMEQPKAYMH
UniProt O94913: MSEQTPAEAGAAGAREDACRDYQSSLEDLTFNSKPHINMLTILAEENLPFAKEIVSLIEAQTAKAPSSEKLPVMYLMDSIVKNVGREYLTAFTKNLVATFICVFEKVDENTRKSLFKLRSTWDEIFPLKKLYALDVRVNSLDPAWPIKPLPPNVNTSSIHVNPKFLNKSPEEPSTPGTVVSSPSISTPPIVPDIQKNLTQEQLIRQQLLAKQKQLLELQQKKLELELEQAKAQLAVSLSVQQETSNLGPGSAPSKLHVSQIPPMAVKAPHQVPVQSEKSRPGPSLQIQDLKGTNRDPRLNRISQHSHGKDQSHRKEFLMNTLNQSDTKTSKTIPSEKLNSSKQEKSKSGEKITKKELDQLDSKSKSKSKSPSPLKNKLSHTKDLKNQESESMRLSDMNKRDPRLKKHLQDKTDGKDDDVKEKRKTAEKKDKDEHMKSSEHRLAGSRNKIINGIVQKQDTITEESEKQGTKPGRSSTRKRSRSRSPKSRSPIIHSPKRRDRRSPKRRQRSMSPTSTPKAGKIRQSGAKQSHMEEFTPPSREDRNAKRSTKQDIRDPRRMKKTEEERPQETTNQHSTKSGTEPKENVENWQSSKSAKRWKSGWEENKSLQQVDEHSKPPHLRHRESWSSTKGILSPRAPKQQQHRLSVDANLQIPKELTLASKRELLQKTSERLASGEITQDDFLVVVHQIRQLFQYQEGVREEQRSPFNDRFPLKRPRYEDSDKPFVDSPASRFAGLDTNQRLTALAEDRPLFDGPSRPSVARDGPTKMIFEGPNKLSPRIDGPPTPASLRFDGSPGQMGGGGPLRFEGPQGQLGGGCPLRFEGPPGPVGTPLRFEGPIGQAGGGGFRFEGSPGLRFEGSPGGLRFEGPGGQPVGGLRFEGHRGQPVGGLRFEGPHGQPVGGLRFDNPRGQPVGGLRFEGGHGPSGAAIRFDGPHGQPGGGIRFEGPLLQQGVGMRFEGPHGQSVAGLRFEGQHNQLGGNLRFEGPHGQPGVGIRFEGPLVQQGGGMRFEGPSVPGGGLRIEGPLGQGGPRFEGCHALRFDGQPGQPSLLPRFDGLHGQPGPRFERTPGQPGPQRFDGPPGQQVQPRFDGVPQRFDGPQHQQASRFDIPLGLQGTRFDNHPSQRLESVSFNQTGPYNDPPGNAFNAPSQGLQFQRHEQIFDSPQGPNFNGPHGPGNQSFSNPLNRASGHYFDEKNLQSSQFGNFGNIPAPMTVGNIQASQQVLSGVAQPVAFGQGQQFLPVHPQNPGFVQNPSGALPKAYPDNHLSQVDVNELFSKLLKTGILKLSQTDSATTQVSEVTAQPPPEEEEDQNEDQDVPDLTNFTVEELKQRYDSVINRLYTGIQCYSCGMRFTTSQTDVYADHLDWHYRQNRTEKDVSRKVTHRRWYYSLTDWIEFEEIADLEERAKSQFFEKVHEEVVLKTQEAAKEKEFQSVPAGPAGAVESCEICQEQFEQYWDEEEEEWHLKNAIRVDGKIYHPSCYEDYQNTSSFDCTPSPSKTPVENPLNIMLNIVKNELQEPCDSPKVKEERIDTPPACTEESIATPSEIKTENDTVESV
UniProt P61326: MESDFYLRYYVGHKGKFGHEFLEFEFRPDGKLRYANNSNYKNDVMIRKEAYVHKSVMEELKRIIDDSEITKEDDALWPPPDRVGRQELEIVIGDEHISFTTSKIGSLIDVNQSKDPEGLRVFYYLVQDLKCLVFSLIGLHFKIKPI
UniProt Q9UQ35: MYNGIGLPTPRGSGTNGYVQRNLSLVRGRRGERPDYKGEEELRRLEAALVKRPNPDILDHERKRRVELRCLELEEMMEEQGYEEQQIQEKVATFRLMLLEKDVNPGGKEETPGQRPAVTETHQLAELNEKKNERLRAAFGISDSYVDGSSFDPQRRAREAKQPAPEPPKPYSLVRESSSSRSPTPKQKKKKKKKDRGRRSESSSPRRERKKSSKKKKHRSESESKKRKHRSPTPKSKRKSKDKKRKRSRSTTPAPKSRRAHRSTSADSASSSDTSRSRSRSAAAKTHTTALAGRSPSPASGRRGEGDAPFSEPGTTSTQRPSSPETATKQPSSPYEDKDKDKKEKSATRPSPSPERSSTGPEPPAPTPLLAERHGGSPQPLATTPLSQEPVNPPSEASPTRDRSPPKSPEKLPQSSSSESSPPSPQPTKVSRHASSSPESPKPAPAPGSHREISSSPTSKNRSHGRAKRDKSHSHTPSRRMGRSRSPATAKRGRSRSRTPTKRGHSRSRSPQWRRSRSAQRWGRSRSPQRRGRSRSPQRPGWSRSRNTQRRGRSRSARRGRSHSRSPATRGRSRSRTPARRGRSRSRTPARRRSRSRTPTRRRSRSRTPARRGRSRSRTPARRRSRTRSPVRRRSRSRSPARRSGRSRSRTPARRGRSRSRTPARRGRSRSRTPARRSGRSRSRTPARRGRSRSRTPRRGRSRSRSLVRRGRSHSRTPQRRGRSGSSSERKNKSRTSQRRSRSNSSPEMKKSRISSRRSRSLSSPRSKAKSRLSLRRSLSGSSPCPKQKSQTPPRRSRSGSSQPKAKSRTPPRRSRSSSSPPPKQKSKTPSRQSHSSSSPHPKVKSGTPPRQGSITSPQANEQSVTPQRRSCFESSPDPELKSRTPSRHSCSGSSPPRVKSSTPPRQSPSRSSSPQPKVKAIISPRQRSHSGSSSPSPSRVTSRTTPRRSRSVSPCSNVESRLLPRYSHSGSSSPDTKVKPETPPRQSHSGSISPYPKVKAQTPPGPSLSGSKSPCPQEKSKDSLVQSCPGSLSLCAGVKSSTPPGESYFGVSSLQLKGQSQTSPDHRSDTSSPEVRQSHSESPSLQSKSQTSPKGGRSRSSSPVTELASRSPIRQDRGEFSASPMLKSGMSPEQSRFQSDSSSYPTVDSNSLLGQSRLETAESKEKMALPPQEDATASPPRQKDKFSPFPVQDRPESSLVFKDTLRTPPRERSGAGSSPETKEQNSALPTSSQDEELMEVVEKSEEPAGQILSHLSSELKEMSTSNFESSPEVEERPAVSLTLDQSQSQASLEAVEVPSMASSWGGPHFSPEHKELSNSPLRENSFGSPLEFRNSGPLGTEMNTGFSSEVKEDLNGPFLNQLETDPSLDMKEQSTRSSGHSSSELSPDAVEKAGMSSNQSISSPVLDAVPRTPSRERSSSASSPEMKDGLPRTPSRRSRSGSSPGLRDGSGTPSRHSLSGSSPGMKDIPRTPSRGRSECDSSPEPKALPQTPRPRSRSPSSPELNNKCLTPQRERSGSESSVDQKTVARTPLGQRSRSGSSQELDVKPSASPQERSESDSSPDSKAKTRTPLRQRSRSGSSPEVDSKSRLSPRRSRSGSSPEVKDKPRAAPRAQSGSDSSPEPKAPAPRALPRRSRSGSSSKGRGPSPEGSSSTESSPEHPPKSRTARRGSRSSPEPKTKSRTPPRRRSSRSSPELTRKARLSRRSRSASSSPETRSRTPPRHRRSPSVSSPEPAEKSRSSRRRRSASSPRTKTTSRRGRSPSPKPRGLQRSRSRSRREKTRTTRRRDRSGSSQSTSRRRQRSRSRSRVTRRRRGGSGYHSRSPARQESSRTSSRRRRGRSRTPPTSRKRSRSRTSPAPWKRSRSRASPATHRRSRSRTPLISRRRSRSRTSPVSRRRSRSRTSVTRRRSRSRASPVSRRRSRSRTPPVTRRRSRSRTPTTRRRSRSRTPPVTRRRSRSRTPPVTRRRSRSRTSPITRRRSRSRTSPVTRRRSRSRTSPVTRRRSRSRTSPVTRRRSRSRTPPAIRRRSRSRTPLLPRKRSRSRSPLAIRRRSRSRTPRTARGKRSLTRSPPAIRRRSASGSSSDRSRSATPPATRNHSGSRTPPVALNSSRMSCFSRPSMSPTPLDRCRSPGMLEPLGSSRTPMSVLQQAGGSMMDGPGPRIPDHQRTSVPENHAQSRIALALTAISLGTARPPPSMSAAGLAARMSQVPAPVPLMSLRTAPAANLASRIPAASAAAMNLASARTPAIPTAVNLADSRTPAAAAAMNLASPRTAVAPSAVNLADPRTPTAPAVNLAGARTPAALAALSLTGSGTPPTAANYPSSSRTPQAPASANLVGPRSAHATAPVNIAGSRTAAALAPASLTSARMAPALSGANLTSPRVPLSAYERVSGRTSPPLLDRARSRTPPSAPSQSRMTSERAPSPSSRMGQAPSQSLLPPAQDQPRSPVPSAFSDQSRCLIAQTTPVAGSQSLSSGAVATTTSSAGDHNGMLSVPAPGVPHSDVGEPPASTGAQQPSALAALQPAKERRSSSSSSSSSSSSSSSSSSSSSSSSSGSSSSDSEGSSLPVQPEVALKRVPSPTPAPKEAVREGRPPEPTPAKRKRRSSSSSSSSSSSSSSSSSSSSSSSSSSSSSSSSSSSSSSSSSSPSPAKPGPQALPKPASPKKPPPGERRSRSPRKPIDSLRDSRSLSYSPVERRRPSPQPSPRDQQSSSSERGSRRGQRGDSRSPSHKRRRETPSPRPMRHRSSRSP

Sequences and labels used below:
B1: serine/arginine repetitive matrix protein 1 (protein, UniProt Q8IYB3 1-904)
chain: MDAGFFRGTSAEQDNRFSNKQKKLLKQLKFAECLEKKVDMSKVNLEVIKPWITKRVTEILGFEDDVVIEFIFNQLEVKNPDSKMMQINLTGFLNGKNAREFMGELWPLLLSAQENIAGIPSAFLELKKEEIKQRQIEQEKLASMKKQDEDKDKRDKEEKESSREKRERSRSPRRRKSRSPSPRRRSSPVRRERKRSHSRSPRHRTKSRSPSPAPEKKEKTPELPEPSVKVKEPSVQEATSTSDILKVPKPEPIPEPKEPSPEKNSKKEKEKEKTRPRSRSRSKSRSRTRSRSPSHTRPRRRHRSRSRSYSPRRRPSPRRRPSPRRRTPPRRMPPPPRHRRSRSPVRRRRRSSASLSGSSSSSSSSRSRSPPKKPPKRTSSPPRKTRRLSPSASPPRRRHRPSPPATPPPKTRHSPTPQQSNRTRKSRVSVSPGRTSGKVTKHKGTEKRESPSPAPKPRKVELSESEEDKGGKMAAADSVQQRRQYRRQNQQSSSDSGSSSSSEDERPKRSHVKNGEVGRRRRHSPSRSASPSPRKRQKETSPRGRRRRSPSPPPTRRRRSPSPAPPPRRRRTPTPPPRRRTPSPPPRRRSPSPRRYSPPIQRRYSPSPPPKRRTASPPPPPKRRASPSPPPKRRVSHSPPPKQRSSPVTKRRSPSLSSKHRKGSSPSRSTREARSPQPNKRHSPSPRPRAPQTSSSPPPVRRGASSSPQRRQSPSPSTRPIRRVSRTPEPKKIKKAASPSPQSVRRVSSSRSVSGSPEPAAKKPPAPPSPVQSQSPSTNWSPAVPVKKAKSPTPSPSPPRNSDQEGGGKKKKKKKDKKHKKDKKHKKHKKHKKEKAVAAAAAAAVTPAAIAAATTTLAQEEPVAAPEPKKETESEAEDNLDDLEKHLREKALRSMRKAQVSPQS
B2: SR Splicing Factor SRSF4 (protein, UniProt Q08170 1-494)
chain: MPRVYIGRLSYQARERDVERFFKGYGKILEVDLKNGYGFVEFDDLRDADDAVYELNGKDLCGERVIVEHARGPRRDGSYGSGRSGYGYRRSGRDKYGPPTRTEYRLIVENLSSRCSWQDLKDYMRQAGEVTYADAHKGRKNEGVIEFVSYSDMKRALEKLDGTEVNGRKIRLVEDKPGSRRRRSYSRSRSHSRSRSRSRHSRKSRSRSGSSKSSHSKSRSRSRSGSRSRSKSRSRSQSRSRSKKEKSRSPSKEKSRSRSHSAGKSRSKSKDQAEEKIQNNDNVGKPKSRSPSRHKSKSKSRSRSQERRVEEEKRGSVSRGRSQEKSLRQSRSRSRSKGGSRSRSRSRSKSKDKRKGRKRSREESRSRSRSRSKSERSRKRGSKRDSKAGSSKKKKKEDTDRSQSRSPSRSVSKEREHAKSESSQREGRGESENAGTNQETRSRSRSNSKSKPNLPSESRSRSKSASKTRSRSKSRSRSASRSPSRSRSRSHSRS
B3: SR Splicing Factor SRSF8 (protein, UniProt Q9BRL6 1-282)
chain: MSCGRPPPDVDGMITLKVDNLTYRTSPDSLRRVFEKYGRVGDVYIPREPHTKAPRGFAFVRFHDRRDAQDAEAAMDGAELDGRELRVQVARYGRRDLPRSRQGEPRGRSRGGGYGRRSRSYGRRSRSPRRRHRSRSRGPSCSRSRSRSRYRGSRYSRSPYSRSPYSRSRYSRSPYSRSRYRESRYGGSHYSSSGYSNSRYSRYHSSRSHSKSGSSTSSRSASTSKSSSARRSKSSSVSRSRSRSRSSSMTRSPPRVSKRKSKSRSRSKRPPKSPEEEGQMSS
B4: RNPS1 (protein, UniProt Q15287 1-305)
chain: MDLSGVKKKSLLGVKENNKKSSTRAPSPTKRKDRSDEKSKDRSKDKGATKESSEKDRGRDKTRKRRSASSGSSSTRSRSSSTSSSGSSTSTGSSSGSSSSSASSRSGSSSTSRSSSSSSSSGSPSPSRRRHDNRRRSRSKSKPPKRDEKERKRRSPSPKPTKVHIGRLTRNVTKDHIMEIFSTYGKIKMIDMPVERMHPHLSKGYAYVEFENPDEAEKALKHMDGGQIDGQEITATAVLAPWPRPPPRRFSPPRRMLPPPPMWRRSPPRMRRRSRSPRRRSPVRRRSRSPGRRRHRSRSSSNSSR
B5: SR Splicing Factor SRSF5 (protein, UniProt Q13243 1-272)
chain: MSGCRVFIGRLNPAAREKDVERFFKGYGRIRDIDLKRGFGFVEFEDPRDADDAVYELDGKELCSERVTIEHARARSRGGRGRGRYSDRFSSRRPRNDRRNAPPVRTENRLIVENLSSRVSWQDLKDFMRQAGEVTFADAHRPKLNEGVVEFASYGDLKNAIEKLSGKEINGRKIKLIEGSKRHSRSRSRSRSRTRSSSRSRSRSRSRSRKSYSRSRSRSRSRSRSKSRSVSRSPVPEKSQKRGSSSRSKSPASVDRQRSRSRSRSRSVDSGN
B6: SR Splicing Factor SRSF7 (protein, UniProt Q16629 1-238)
chain: MSRYGRYGGETKVYVGNLGTGAGKGELERAFSYYGPLRTVWIARNPPGFAFVEFEDPRDAEDAVRGLDGKVICGSRVRVELSTGMPRRSRFDRPPARRPFDPNDRCYECGEKGHYAYDCHRYSRRRRSRSRSRSHSRSRGRRYSRSRSRSRGRRSRSASPRRSRSISLRRSRSASLRRSRSGSIKGSRYFQSPSRSRSRSRSISRPRSSRSKSRSPSPKRSRSPSGSPRRSASPERMD
B7: TRA2B (protein, UniProt P62995 1-288)
chain: MSDSGEQNYGERESRSASRSGSAHGSGKSARHTPARSRSKEDSRRSRSKSRSRSESRSRSRRSSRRHYTRSRSRSRSHRRSRSRSYSRDYRRRHSHSHSPMSTRRRHVGNRANPDPNCCLGVFGLSLYTTERDLREVFSKYGPIADVSIVYDQQSRRSRGFAFVYFENVDDAKEAKERANGMELDGRRIRVDFSITKRPHTPTPGIYMGRPTYGSSRRRDYYDRGYDRGYDDRDYYSRSYRGGGGGGGGWRAAQDRDQIYRRRSPSPYYSRGGYRSRSRSRSYSPRRY
B8: CPSF1 (protein, UniProt Q10570 1-1443)
chain: MYAVYKQAHPPTGLEFSMYCNFFNNSERNLVVAGTSQLYVYRLNRDAEALTKNDRSTEGKAHREKLELAASFSFFGNVMSMASVQLAGAKRDALLLSFKDAKLSVVEYDPGTHDLKTLSLHYFEEPELRDGFVQNVHTPRVRVDPDGRCAAMLVYGTRLVVLPFRRESLAEEHEGLVGEGQRSSFLPSYIIDVRALDEKLLNIIDLQFLHGYYEPTLLILFEPNQTWPGRVAVRQDTCSIVAISLNITQKVHPVIWSLTSLPFDCTQALAVPKPIGGVVVFAVNSLLYLNQSVPPYGVALNSLTTGTTAFPLRTQEGVRITLDCAQATFISYDKMVISLKGGEIYVLTLITDGMRSVRAFHFDKAAASVLTTSMVTMEPGYLFLGSRLGNSLLLKYTEKLQEPPASAVREAADKEEPPSKKKRVDATAGWSAAGKSVPQDEVDEIEVYGSEAQSGTQLATYSFEVCDSILNIGPCANAAVGEPAFLSEEFQNSPEPDLEIVVCSGHGKNGALSVLQKSIRPQVVTTFELPGCYDMWTVIAPVRKEEEDNPKGEGTEQEPSTTPEADDDGRRHGFLILSREDSTMILQTGQEIMELDTSGFATQGPTVFAGNIGDNRYIVQVSPLGIRLLEGVNQLHFIPVDLGAPIVQCAVADPYVVIMSAEGHVTMFLLKSDSYGGRHHRLALHKPPLHHQSKVITLCLYRDLSGMFTTESRLGGARDELGGRSGPEAEGLGSETSPTVDDEEEMLYGDSGSLFSPSKEEARRSSQPPADRDPAPFRAEPTHWCLLVRENGTMEIYQLPDWRLVFLVKNFPVGQRVLVDSSFGQPTTQGEARREEATRQGELPLVKEVLLVALGSRQSRPYLLVHVDQELLIYEAFPHDSQLGQGNLKVRFKKVPHNINFREKKPKPSKKKAEGGGAEEGAGARGRVARFRYFEDIYGYSGVFICGPSPHWLLVTGRGALRLHPMAIDGPVDSFAPFHNVNCPRGFLYFNRQGELRISVLPAYLSYDAPWPVRKIPLRCTAHYVAYHVESKVYAVATSTNTPCARIPRMTGEEKEFETIERDERYIHPQQEAFSIQLISPVSWEAIPNARIELQEWEHVTCMKTVSLRSEETVSGLKGYVAAGTCLMQGEEVTCRGRILIMDVIEVVPEPGQPLTKNKFKVLYEKEQKGPVTALCHCNGHLVSAIGQKIFLWSLRASELTGMAFIDTQLYIHQMISVKNFILAADVMKSISLLRYQEESKTLSLVSRDAKPLEVYSVDFMVDNAQLGFLVSDRDRNLMVYMYLPEAKESFGGMRLLRRADFHVGAHVNTFWRTPCRGATEGLSKKSVVWENKHITWFATLDGGIGLLLPMQEKTYRRLLMLQNALTTMLPHHAGLNPRAFRMLHVDRRTLQNAVRNVLDGELLNRYLYLSTMERSELAKKIGTTPDIILDDLLETDRVTAHF
B9: SR Splicing Factor SRSF6 (protein, UniProt Q13247 1-344)
chain: MPRVYIGRLSYNVREKDIQRFFSGYGRLLEVDLKNGYGFVEFEDSRDADDAVYELNGKELCGERVIVEHARGPRRDRDGYSYGSRSGGGGYSSRRTSGRDKYGPPVRTEYRLIVENLSSRCSWQDLKDFMRQAGEVTYADAHKERTNEGVIEFRSYSDMKRALDKLDGTEINGRNIRLIEDKPRTSHRRSYSGSRSRSRSRRRSRSRSRRSSRSRSRSISKSRSRSRSRSKGRSRSRSKGRKSRSKSKSKPKSDRGSHSHSRSRSKDEYEKSRSRSRSRSPKENGKGDIKSKSRSRSQSRSNSPLPVPPSKARSVSPPPKRATSRSRSRSRSKSRSRSRSSSRD
B10: TRA2A (protein, UniProt Q13595 1-282)
chain: MSDVEENNFEGRESRSQSKSPTGTPARVKSESRSGSRSPSRVSKHSESHSRSRSKSRSRSRRHSHRRYTRSRSHSHSHRRRSRSRSYTPEYRRRRSRSHSPMSNRRRHTGSRANPDPNTCLGVFGLSLYTTERDLREVFSRYGPLSGVNVVYDQRTGRSRGFAFVYFERIDDSKEAMERANGMELDGRRIRVDYSITKRAHTPTPGIYMGRPTHSGGGGGGGGGGGGGGGGRRRDSYYDRGYDRGYDRYEDYDYRYRRRSPSPYYSRYRSRSRSRSYSPRRY
B11: SR Splicing Factor SRSF3 (protein, UniProt P84103 1-164)
chain: MHRDSCPLDCKVYVGNLGNNGNKTELERAFGYYGPLRSVWVARNPPGFAFVEFEDPRDAADAVRELDGRTLCGCRVRVELSNGEKRSRNRGPPPSWGRRPRDDYRRRSPPPRRRSPRRRSFSRSRSRSLSRDRRRERSLSRERNHKPSRSFSRSRSRSRSNERK

These are yes or no findings as the source states them, for the method shown. In cells and extracts the contact can be indirect. These calls come from enrichment with a bait or labelling near it, and not all partners need be listed.

The test has as its target CDK12 (endogenous, HeLa nuclear extract) (human (endogenous in HeLa)) (UniProt Q9NYV4). Briefly: affinity purification with mass spectrometry; endogenous CDK12 immunopurified from HeLa Dignam-Roeder nuclear extract (about 4 mg/ml, 400 mM NaCl) with rabbit anti-hCDK12 IgG cross-linked to anti-rabbit IgG avidin resin, overnight, 4 °C; washes with 400 mM NaCl buffer and 1% Nonidet P-40; formic acid elution; LC MS/MS; proteins present in total rabbit IgG control filtered out.
Take PAP1L (from UniProt Q4VXU2 1-619): the binding result is “binds”.
As to “PCF11 (a 3′-end processing factor) (from UniProt O94913 1-1555)”, the binding entry is “binds”.
As to “SR Splicing Factor SRSF9 (from UniProt Q13242 1-221)”, the binding entry was “binds”.
As for MGN (from UniProt P61326 1-146), the binding result is reported as “binds”.
With “SR Splicing Factor SRSF10 (from UniProt O75494 1-262)”, the binding entry is given as “binds”.
With “SR Splicing Factor SRSF1 (from UniProt Q07955 1-248)”, the binding entry is on record as “binds”.
Take “serine/arginine repetitive matrix protein 2 (from UniProt Q9UQ35 1-2752)”: the binding result is recorded as “binds”.
With eIF4A3 (from UniProt P38919 1-411), the binding result is “binds”.
As for B1, the binding entry is given as “binds”.
As to B2, the binding entry was “binds”.
For B3, the binding result is “binds”.
The entry for B4 is “binds”; for B5 it is “binds”; for B6 it is “binds”.
On to B7, for which the binding result was “binds”.
As to B8, the binding result is listed as “binds”.
With B9, the binding result is given as “binds”.
For B10, the binding result is reported as “binds”.
The entry for B11 is “binds”.
